Some results were stated once for a whole list of compounds, not compound by compound.
Legend:
[1] = system: Alternaria brassicae; test: In vivo test on Alternaria brassicae (leaf spot of crucifers), radish plants; conditions: dose of 500 g/ha; radish plants (Pernot variety) sprayed 24 hours before contamination; grading 6 to 7 days after contamination, in comparison with control plants
[2] = system: Botrytis cinerea; test: In vivo test on Botrytis cinerea (cucumber grey mould), cucumber plants; conditions: dose of 500 g/ha; cucumber plants (Marketer variety) sprayed 24 hours before contamination; grading 5/7 days after contamination, in comparison with control plants
[3] = system: Septoria nodorum; test: In vivo test on Septoria nodorum (wheat glume blotch), wheat plants; conditions: dose of 500 g/ha; wheat plants (Scipion variety) sprayed 24 hours before contamination; grading 15 to 20 days after contamination, in comparison with control plants
[4] = system: Erysiphe graminis f. sp. tritici; test: In vivo test on Erysiphe graminis f. sp. tritici (powdery mildew of wheat), wheat plants; conditions: dose of 500 g/ha; wheat plants (Audace variety) sprayed 24 hours before contamination; grading 7 to 14 days after contamination, in comparison with control plants
[5] = system: Septoria tritici; test: In vivo test on Septoria tritici (leaf spot of wheat), wheat plants; conditions: dose of 500 g/ha; wheat plants (Scipion variety) sprayed 24 hours before contamination; grading 15 to 20 days after contamination, in comparison with control plants
[6] = system: Puccinia recondita; test: In vivo test on Puccinia recondita (wheat brown rust), wheat plants; conditions: dose of 500 g/ha; wheat plants (Scipion variety) sprayed 24 hours before contamination; grading 10 days after contamination, in comparison with control plants

Cc1cn(-c2ccnc(C(=O)Nc3ccc(Oc4cccc(C(F)(F)F)c4)cc3)c2O)cn1 [2-11]
at least 50%: good (at least 50%) or total protection [1] | good (at least 50%) protection [2]

O=C(Nc1ccc(Oc2cccc(C(F)(F)F)c2)cc1)c1nccc(-n2ccnc2)c1O [2-20]
at least 50%: good (at least 50%) or total protection [1] | good (at least 50%) or total protection [3] | good (at least 50%) or total protection [4] | good (at least 50%) protection [5] | good (at least 50%) protection [2]

CN1CCN(c2ccnc(C(=O)Nc3ccc(Oc4cccc(C(F)(F)F)c4)cc3)c2O)CC1 [2-70]
at least 50%: good (at least 50%) or total protection [3] | good (at least 50%) protection [5] | good (at least 50%) protection [2]

Cc1ccc(C)n1-c1ccnc(C(=O)Nc2ccc(Oc3ccc(C(F)(F)F)cc3)cc2)c1O [2-94, 2-{N-para-[4-(trifluoromethylphenoxy)phenyl]} aminocarbonyl-3-hydroxy-4-(2,5 dimetylpyrrol-1-yl) pyridine]
at least 50%: good (at least 50%) or total protection [1] | good (at least 50%) protection [6] | good (at least 50%) protection [2]

Cc1ccc(C)n1-c1ccnc(C(=O)Nc2ccc(Oc3cccc(C(F)(F)F)c3)cc2)c1O [2-96]
at least 50%: good (at least 50%) or total protection [1] | good (at least 50%) or total protection [3] | good (at least 50%) or total protection [4] | good (at least 50%) protection [5] | good (at least 50%) protection [6] | good (at least 50%) protection [2]

CCCCOc1ccc(NC(=O)c2nccc(C3OCCO3)c2OC)cc1 [2-98]
at least 50%: good (at least 50%) protection [5] | good (at least 50%) protection [6] | good (at least 50%) protection [2]
